Laboratory results taken from US6444616B1, “Substituted p-trifluoromethylphenyluracils” (Bayer Aktiengesellschaft, priority 1999, dated 2002).
Some entries share one result that the patent states for a list of compounds. Some compounds share one range, which may span the group rather than tell each member.

How the values were obtained:
Test in all cases: Pre-emergence test
Format in all cases: in vivo
Conditions in all cases: rated after 3 weeks, application rate not stated, range over the compounds named
Abutilon = tested on: Abutilon
Matricaria = tested on: Matricaria
Solanum = tested on: Solanum
Chenopodium = tested on: Chenopodium

SMILES: CS(=O)(=O)Nc1cc(-n2c(=O)cc(C(F)(F)F)[nH]c2=O)c(F)cc1C(F)(F)F [Example 4]
- degree of damage to plants, % damage vs untreated control (Abutilon): 80-100%
- degree of damage to plants, % damage vs untreated control (Matricaria): 90-100%
- degree of damage to plants, % damage vs untreated control (Solanum): 90-100%
- degree of damage to plants, % damage vs untreated control (Chenopodium): 80-100%

SMILES: Cn1c(C(F)(F)F)cc(=O)n(-c2cc(F)c(C(F)(F)F)cc2F)c1=O [Example 2, 1-(2,5-difluoro-4-trifluoromethyl-phenyl)-3,6-dihydro-2,6-dioxo-3-methyl-4-trifluoromethyl-1 (2H)-pyrimidine]
- degree of damage to plants, % damage vs untreated control (Abutilon): 80-100%
- degree of damage to plants, % damage vs untreated control (Matricaria): 90-100%
- degree of damage to plants, % damage vs untreated control (Solanum): 90-100%
- degree of damage to plants, % damage vs untreated control (Chenopodium): 80-100%

SMILES: Cn1c(C(F)(F)F)cc(=O)n(-c2cc(NS(C)(=O)=O)c(C(F)(F)F)cc2F)c1=O [Example 5]
- degree of damage to plants, % damage vs untreated control (Abutilon): 80-100%
- degree of damage to plants, % damage vs untreated control (Matricaria): 90-100%
- degree of damage to plants, % damage vs untreated control (Solanum): 90-100%
- degree of damage to plants, % damage vs untreated control (Chenopodium): 80-100%
